Source: article PMC2684828 (Analytical chemistry, 2009)

Biological target: T1, Cytochrome P450cam (CYP101) (Pseudomonas putida, UniProt P00183)
T1 sequence (P00183 2-415): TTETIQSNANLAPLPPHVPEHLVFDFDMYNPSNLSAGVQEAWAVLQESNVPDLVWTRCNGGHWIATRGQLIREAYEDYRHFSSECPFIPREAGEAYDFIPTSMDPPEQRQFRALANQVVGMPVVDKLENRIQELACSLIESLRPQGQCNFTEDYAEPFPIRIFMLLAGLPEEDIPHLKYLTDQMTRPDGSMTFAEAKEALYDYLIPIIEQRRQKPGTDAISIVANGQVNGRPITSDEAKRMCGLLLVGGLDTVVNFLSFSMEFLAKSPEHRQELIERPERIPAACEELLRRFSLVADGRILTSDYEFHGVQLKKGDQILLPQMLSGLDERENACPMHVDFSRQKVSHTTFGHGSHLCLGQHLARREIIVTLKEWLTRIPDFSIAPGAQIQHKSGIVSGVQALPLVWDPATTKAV
Assay: enzyme/DNA film biosensor
Assay type: biochemical

SMILES: Clc1ccc(CSC(Cn2ccnc2)c2ccc(Cl)cc2Cl)cc1 (stereo not shown) [Sul., sulconazole]
- Ki: 204 µM
